From PubChem BioAssay AID1347423 (Functional Genomics Laboratory (NCATS/FGL), 2020) come the findings set out here.

The whole screen tested about 52,000 sequences, of which about 210 (0.4%) were called active.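 Rule for the calls: active = gene whose silencing raises cell survival under the drug, median off-target-corrected z-score across its silencing RNAs 2 or more; inactive = the rest.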 The list shows a part of the results.

The nature of the assay: Resistance to Poly (ADP-Ribose) Polymerase inhibitor: Gene Identification via Genome-wide siRNA Screen. The note with it: mouse BRCA2 R2336H ES cells, olaparib, CellTiter-Glo viability; active compounds read high. The essentials: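 Genome-wide siRNA screen (3 siRNAs/gene, 20 nM) in mouse ES cells carrying hypomorphic BRCA2 R2336H; olaparib 500 nM added 48 h post-transfection, CellTiter-Glo viability 72 h later. Normalized to plate-median negative control; MAD z-scores, gene median, seed-adjusted.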
(Cellular ATP, detected with luciferase, serves as a proxy for viable cell number.)
Regarding CCAAGCCUAAUAAAAUUCCTT against Lisch7, the z-score is inactive: -0.274.

In the case of “GGAAAUGCUUCUGAGCUAGTT against 5830417C01Rik”, the z-score is inactive: 0.677.

With CCUUAGGAUUUGAACGCGUTT against Cutc, the z-score is inactive: 0.217.

With “GCAACAAUAUUGCUCUAGATT against A830023L05”, the z-score is inactive: 0.95.

In the case of GGCUGCACAUCUGAGUACCTT against Itgb2l, the z-score was inactive: 0.216.

With CCUACUUGCAGAUUGUUUUTT against Rapgef6, the z-score was inactive: 0.784.

In the case of GGCUGUCCACCGUAUGUAATT against Xab1, the z-score was inactive: 0.657.

As to GGAAUCCUCACCAGCUUAATT against Rga, the z-score was inactive: 0.58.

With GGUUUGAGAAAUGACUUAATT against Narg1, the z-score is inactive: 0.936.

Take GCGAUGCACUGUGUAAACUTT against Ccr6: the z-score is inactive: 0.884.

Regarding “GGUUAGCUGAAAGUUGAGGTT against D6Ertd538e”, the z-score was inactive: 0.975.

For GGACUUGUCUUUGACACGCTT against Nt5c2, the z-score is inactive: 2.18.

On to “CCUGUCAAUGCAAGAAUGGTT against B230343H07Rik”, for which the z-score was inactive: 0.082.

As to “CGAGAUCACAGACCAAUUGTT against 9430059P22Rik”, the z-score was inactive: 0.262.

Turning to “GGCCUGUUUUGUACUUUUATT against 2010003I19Rik”, the z-score was inactive: -0.919.

With CCGCUUUUGGAACUAUGAGTT against Stard3nl, the z-score was inactive: -0.403.

On to GGUCCUUUUUUCAACCAGCTT against Sh3gl1, for which the z-score was inactive: -0.138.

Take CCAGAAUGGCGGGUAUUUGTT against Fbln5: the z-score was inactive: 1.18.

CGAGGAGCUAGCUGUAAAUTT against Gsc: the z-score is inactive: 0.776.

Regarding CCUCAACUCCGACAAACAGTT against D8Wsu49e, the z-score was inactive: 1.76.

Regarding “GGCCUCUGUCAUUUUAAAGTT against 2410008J05Rik”, the z-score is inactive: 0.773.

For the sequence “GCUUCAAAACAAACCCUUGTT against 5330431N24Rik”, the z-score was inactive: -0.118.

As to “GCACCUCAAAAGAAUUCAUTT against 9430099J10Rik”, the z-score is inactive: 2.13.

Turning to GGCGUGUUUGCUAAUUUAUTT against Pkd1, the z-score is inactive: -0.387.

Regarding GCUAUGCUGUUUUAUGUGATT against Synpr, the z-score was inactive: 0.895.

On to GGGAGACGGCGAGGUUUUATT against Arl6ip4, for which the z-score is inactive: 0.237.

As to GGAAGUAAAGCUCUACAAGTT against Vps28, the z-score is inactive: 0.804.

As for “GGGAGGAAGAUGAUCCGGUTT against 1810008A14Rik”, the z-score was inactive: -0.585.

Turning to “GGACUAUUCAAACCUAUAUTT against B230358A15Rik”, the z-score is inactive: -2.95.

Consider CGGCAUUCAGAUUGUCUCUTT against Nup210, for which the z-score is inactive: 1.01.

GGAACUGCCUGAAAAAAUGTT against Dcn: the z-score is inactive: 0.145.

For GGCAGAAUUUCAGCAACCUTT against Asgr1, the z-score is inactive: 2.62.

“GGAUAUUUUUAGUGUCUUGTT against 9330120H11Rik”: the z-score was inactive: 1.23.

With GGCCAUCACUAUUAGCCUCTT against V1rl1, the z-score is inactive: 0.886.

For the sequence GGAAUUGAACAUCAUUUGCTT against Suox, the z-score was inactive: 1.07.

Turning to “GGAUCAUACCAUACUGGCCTT against 2900041A09Rik”, the z-score is inactive: -0.106.

With GGCCUUGGGCAUACUCAACTT against Star, the z-score was inactive: 1.36.

In the case of GGAGAGACAGAGACAAAAUTT against Trim26, the z-score is inactive: -0.814.

Turning to GCAUGGAGGAAACCAUUAGTT against Slc38a3, the z-score is inactive: -0.521.

GAUUACCCAACGUACAGCUTT against Kb37: the z-score is inactive: -0.935.

As to GGAGUAUGCGUACCUGAAGTT against Nr0b2, the z-score is inactive: -1.68.

As to “GCAGAUGGAAUUCACCGAATT against D330038K10Rik”, the z-score is inactive: -0.559.

As for GCCUGUACAUCAUGCGUGUTT against Rprm, the z-score was inactive: 0.803.

As for CCUGAUGUGAAGAAAUCAATT against Akap10, the z-score was inactive: 3.2.

In the case of GCCAAAAACGGGCAUAUUGTT against Fech, the z-score is inactive: 0.319.

In the case of “GGCUACAACCUGAAAGAUGTT against 2900026H06Rik”, the z-score was inactive: -0.0657.

Regarding GGAGAGACCACCUUUUGCUTT against AI837181, the z-score is inactive: -0.312.

As for GGACCUAAGGGAUCUAUUGTT against Col5a3, the z-score is inactive: -2.28.

In the case of “GGAAGUCAUUCUUGAGAAGTT against 1700001E04Rik”, the z-score is inactive: -0.325.

Consider “CCUCUAGCUCCUAACCAUUTT against 6030498E09Rik”, for which the z-score was inactive: -0.965.

Consider “GUACGAAGACUUCUCUAGUTT against 5730557B15Rik”, for which the z-score was inactive: 1.

For the sequence “CCCUCAUGACAGCUUCGCATT against 5430401O09Rik”, the z-score was inactive: 1.14.

As to GGCACAAACAUGUGUUCUATT against V1rd3, the z-score was inactive: -0.358.

GGGAAUCACCCUGAGAAAGTT against Ccndbp1: the z-score was inactive: -2.07.

For GGCUGAGGCAGCACUUACUTT against Jph3, the z-score was inactive: -0.0706.

As for CCUCGUGUGGAAUUUGAUCTT against Mug1, the z-score was inactive: 0.0166.

For GCCACUUAAUGUCACUUUATT against Bag2, the z-score was inactive: 0.324.

Regarding CCCUCACAGUAACCUGUCGTT against Espl1, the z-score is inactive: -1.17.

For CCUUGUUUCUAUCAAGACUTT against Scamp1, the z-score is inactive: 0.732.

With GGACUUCACUGAAGAUUCATT against Acbd4, the z-score is inactive: 0.158.

Regarding GGAAGCAACAUGGAUACUATT against Evi1, the z-score is inactive: 0.69.

Turning to GGCAGUGUGAAGACAUUGATT against Scube1, the z-score was inactive: -1.5.

With UCUACAAGUGGAUCACGGATT against Foxj1, the z-score was inactive: 0.906.

In the case of CCCAGAGACCUUUAUCAAUTT against Fbxl14, the z-score is inactive: 0.541.

“GGGCGUAAUUAAGAAGGAATT against C230008H04Rik”: the z-score was inactive: -0.485.

Consider UCUCUGUUCUGUAUACAGUTT against Olfr1414, for which the z-score is inactive: -0.3.

Turning to GGCUGUUGUGGAUUUUCUCTT against Olfr698, the z-score was inactive: 0.358.

Regarding GGACUUUUGUGUAUAGUUATT against Smad1, the z-score was inactive: 0.131.

Take GGAAACUAAUUUCAAGCCUTT against Hat1: the z-score is inactive: 0.356.

As to GGAGCUGAAAUCCUUUGUUTT against Dnttip1, the z-score is inactive: 0.457.

As to GGCAAAAGAUAUAAGCGGUTT against Mbd3l2, the z-score was inactive: -0.965.

Take GGUUUUGGAUUUGUGACUATT against Elavl2: the z-score is inactive: -0.463.

Turning to CCACCCACUAAACCUAAAUTT against Pcolce, the z-score was inactive: -0.139.

As for GGAGAUGCCUUCCAGAUUCTT against Pcdh12, the z-score was inactive: 2.59.

In the case of GGUCUUCUCUACCUGCUCCTT against Olfr796, the z-score was inactive: 1.04.

“CCGGGAGAAUCAUCGAGAUTT against 1110020C03Rik”: the z-score was inactive: -1.49.

Turning to “GCCACCUUAACAUUAGCCUTT against 1700012B18Rik”, the z-score was inactive: 0.247.

Turning to “GCAGCCAAAUUCAUCCUCATT against 1300010A20Rik”, the z-score is inactive: -2.01.

For the sequence GCCAUGCUAGUUUGAUACCTT against Bmp4, the z-score was inactive: 1.09.

As to GGGAUUUUUCCCUUAAUUCTT against Smad4, the z-score is inactive: -0.0953.

Take GGAAUGGAGAGAUCAGUAGTT against Cox7b: the z-score was inactive: -1.43.

On to GGAGAACUGUCAGAACGAGTT against Gpx2, for which the z-score is inactive: -2.7.

Turning to GGAGUUCUCGGACUUUCUGTT against C87436, the z-score is inactive: 1.26.

Consider GGCAGACCGUGUUAAAAUGTT against Dnajc2, for which the z-score was inactive: 0.12.

GGAAUCAGGAAUGCUACUUTT against AW550801: the z-score was inactive: -2.12.

As for GGUAUUUCACAAUCUUCUCTT against Pmpca, the z-score was inactive: -0.0729.

In the case of GGCGUACAACAAAAAGCGGTT against AI467503, the z-score was inactive: -0.459.

Regarding GGCUUGCAAAGUGAAUCCUTT against Gls2, the z-score was inactive: 1.43.

As to GCUGCUAAGGAAUUUAAAATT against Topors, the z-score is inactive: 0.0703.

With GCAUGAAAAGCCUCUAUAUTT against Cxcl15, the z-score was inactive: 0.74.

With “GGUUGUCUGUCUGUCCAUCTT against 2900024D24Rik”, the z-score was inactive: 1.42.

For “GGCAAGCACACAAUGAUGCTT against 2310076L09Rik”, the z-score was inactive: -1.02.

On to GGAUCCCAAGUUCAAAGCCTT against Rfxap, for which the z-score is inactive: 0.409.

CCUCUCUGAAAACAUGUCUTT against Sntb2: the z-score was inactive: 1.71.

For GGAAAUAUCCUAAACAGAATT against Gdpd2, the z-score was inactive: -0.0131.

Consider GUUGGACUAAGCGACCUUGTT against Rps29, for which the z-score is inactive: -2.89.

With “GGUGUUUCAUAAGAAGGAATT against 1700010H22Rik”, the z-score is inactive: -0.206.

GCUCAUGAAACUUUUGAACTT against Snf1lk: the z-score was inactive: 1.39.

For the sequence GGUACAUUUUAAACAAUGCTT against Sdfr1, the z-score was inactive: 0.487.

Turning to GGGAUGUGUAUUUAAUUACTT against Nr6a1, the z-score is inactive: -1.16.

For the sequence GGAAGACCCUAAUCUAGUCTT against Cox5b, the z-score is inactive: -0.198.

As for GGUGAAUUCUCAUGCAUGGTT against Timp2, the z-score is inactive: 1.1.

In the case of GGAAACAAGGGACUCUGUATT against Col4a4, the z-score is inactive: -2.3.

Regarding AAAGACUGUGACCUCUGGGTT against Tgoln2, the z-score was inactive: -2.31.
